Measured values taken from PMC6362314, “Both a Unique Motif at the C Terminus and an N-Terminal HEAT Repeat Contribute to G-Quadruplex Binding and Origin Regulation by the Rif1 Protein” (Molecular and Cellular Biology, 2018).
Results are given in words; binding and its absence hold for the method and conditions named. Some binding calls cover weakened binding; strength is not graded here. Each block holds one binder with its values, some of them ahead of it.

Key:
[1] = biological target: Rif1 short N-terminal polypeptide (aa 1 to 444) (S. pombe) (UniProt Q96UP3); assay: native gel or EMSA; N-terminal polypeptides on a native gel, data not shown; self-association; both purified
[2] = biological target: Rif1 aa 1129 to 1400 mut2 polypeptide (S. pombe) (UniProt Q96UP3); assay: SEC; gel filtration of purified aa 1129 to 1400 wild type and mut2; self-association; both purified
[3] = biological target: Rif1 N-terminal polypeptide (aa 1 to 1023) (S. pombe) (UniProt Q96UP3); assay: native gel or EMSA; N-terminal polypeptides on a native gel, data not shown; self-association; both purified

binding [1]: binds
B1: Rif1 short N-terminal polypeptide (aa 1 to 444) (domain or fragment, UniProt Q96UP3 1-444)
chain: MTKEIAVKEASNMLLQEPSTPSSQAVGLSSSPSSSIRKKKVNFSSELENSPGGNRPSFGLPKRGILKTSTPLSSIKQPNFQSFEGNESEKETSLQELQSSFCSGIENLQHVEKSARIETYSKLSSFLKIYTPSLPEDPIFPLLNQLCNFLLSDRCSNNSEGSPDFQLNTQANKLLSILLWHPTISSHIQPETATVFIEQSLNFLEGPKLTKALAAQHLHLLSCQKCPLSIHPLCNRILDVCFNISFPSLVIGQERLAVLTKILSQFPLEFSRRVVDWAPYLLACLVDASRPIREKALLLALDLSKHLYHDKLVARTILANFRSDIKGTAFVLIMTEQFEKLVIEEDDGVYVAHAWAAIISVLGGARISSWEYFNTWLKIIQLCFNSMNPLTKCAAQTSWIRLIHEFSLSETLTQATKRLTLLCQPISMVLGSRNLPTVKNAAMT

binding [2]: binds
B2: Rif1 aa 1129 to 1400 mut2 polypeptide (domain or fragment, UniProt Q96UP3 1129-1400)
chain: KIDETKNEATDMEESLTTPSGKVNKEVIVDDTSLRDEAIVPDKAIDVADNSNALLKENISSQSNRKADNNGTPSVNNSFTTANNDECSKENSQIEPEGQTASREGVLSTPRSTRKKRKLGRKSQSSNVNKEVAISEVSATLENVEVIERHGISEQGQNLDESACVLTNESSLSQTEIPEEKTENETTAVNGFENSKKRQFSSLLSGSIDTNNESNKVSSVEFDKSGPQDIIQSMTEATFEIEKNIQDLKSEEVQKLSDLLMAAARAAAAAIA

binding [3]: binds
B3: Rif1 N-terminal polypeptide (aa 1 to 1023) (domain or fragment, UniProt Q96UP3 1-1023)
chain: MTKEIAVKEASNMLLQEPSTPSSQAVGLSSSPSSSIRKKKVNFSSELENSPGGNRPSFGLPKRGILKTSTPLSSIKQPNFQSFEGNESEKETSLQELQSSFCSGIENLQHVEKSARIETYSKLSSFLKIYTPSLPEDPIFPLLNQLCNFLLSDRCSNNSEGSPDFQLNTQANKLLSILLWHPTISSHIQPETATVFIEQSLNFLEGPKLTKALAAQHLHLLSCQKCPLSIHPLCNRILDVCFNISFPSLVIGQERLAVLTKILSQFPLEFSRRVVDWAPYLLACLVDASRPIREKALLLALDLSKHLYHDKLVARTILANFRSDIKGTAFVLIMTEQFEKLVIEEDDGVYVAHAWAAIISVLGGARISSWEYFNTWLKIIQLCFNSMNPLTKCAAQTSWIRLIHEFSLSETLTQATKRLTLLCQPISMVLGSRNLPTVKNAAMTTLIALIYACLRPGISDAMLSLLWDSVIVNILEKCALKNEVTIFESSNILLALFNTLSNGVWKDDRLVCRESVEAKELPKLNPVWVRANCSRTIEPVKTLLLLAKPDHTVKTTTPARKQHIRGLSYEQSSSVWSTYIKCLASAGQKEIKRSVETGRAICCICSSLHKFLYSKSIRKDELYVERVSRFALMVKSAIEAFGINTFVEASYLVSDNQLVLIDQTKAIDSYDHVPISPLIYLLHSLALLTNGTLFSTVHAAYSSILSSIEEYHLRFGLKLMLLWDCVSPLSDDGTLVLARVLVSHEVSRLTSEALLSELKSRNGNNSVEEGFSEEERSILLKLLSWNVKFCSISDAGSVNNLLQQYFTAIYKFEGCGSVFPFVVDPFTTILDDVLSFEANKVYSFAISLMKVSTFESCTKELPPVTLPENIRQHLDSYNHMVELYNTLLQRLSSSDQVDLQCRYLHELSEFIKKIPKEFIFHTICKLSKGLIPCFLMNAFPQLEKSTTLQKSCTNFCILILQLLLNSTATASNILESLSPLLTSGLKSISKEVVLAAIKFWNQVFGKFESEEYPIELQKTISYL
